The other results are listed elsewhere or left out.

The chains behind the UniProt entries cited, without tags or fusion partners.
UniProt Q0JBA9, entry or part of it: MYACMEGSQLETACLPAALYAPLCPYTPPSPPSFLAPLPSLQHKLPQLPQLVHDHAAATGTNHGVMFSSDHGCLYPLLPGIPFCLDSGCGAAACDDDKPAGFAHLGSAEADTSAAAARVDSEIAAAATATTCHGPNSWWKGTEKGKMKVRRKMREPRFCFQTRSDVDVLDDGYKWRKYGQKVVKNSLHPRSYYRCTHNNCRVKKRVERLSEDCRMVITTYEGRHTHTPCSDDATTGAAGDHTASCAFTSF

In the assay the target is OsWRKY34 (Oryza sativa, UniProt Q0JBA9 1-250). Nature of the assay: protein-binding microarray (RPBM); PBS, 2% BSA, 51.3 ng/ul salmon testes DNA, 50 uM zinc acetate, 200 nM TF, 25 C, 1 h; high values mean tight binding. Conditions: protein: recombinant; tags: N-terminal polyhistidine and DsRed monomer fusion (pET32a); label: CyDye5-dUTP incorporated in the synthesized complementary strand; 3' TTTTT single-stranded linker to array surface; dsDNA, one strand shown. The method, boiled down: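 For the binding signal, per-feature fluorescence intensity was read in arbitrary units on an Axon 4000B scanner. Before scanning, a 2% BSA-blocked custom Agilent array made double-stranded with Cy5-dUTP was washed after 1 h at 25 °C with 200 nM protein and 50 µM zinc acetate. The proteins were Ni–NTA-purified transcription factors with N-terminal polyhistidine and DsRed fusions, expressed in E. coli BL21-CodonPlus.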
As for “ACCATGTATGTCTCTAAGGTATTTTGGGTATTTTTTAAAACGGAGTCACCTAGTGCAG”, the binding signal is 8620 fluorescence intensity (a.u.). As for “GCTGTTCAGCTTCGGCCTCATCTTCGGCTTCGGCCACCTCCGGAGTCACCTAGTGCAG”, the figure is 8400 fluorescence intensity (a.u.); as for “CACGTACTAGCACTGTAGCGCACCCATGACTGTCTTTCTTCGGAGTCACCTAGTGCAG”, 9370 fluorescence intensity (a.u.); as for “CTCTCTCACTCTTCTCCCTCTTCTCACCACCAGACGCCATCGGAGTCACCTAGTGCAG”, 8850 fluorescence intensity (a.u.). The value for “GATGTTAAGAAGACCATGAATGTTGCATTTTTACTCGTTGCGGAGTCACCTAGTGCAG” was 8200 fluorescence intensity (a.u.). As for “GAAGACTTGTGTTACGTTTCCATTTTAGTCTACCAGCTGCCGGAGTCACCTAGTGCAG”, the figure is 8650 fluorescence intensity (a.u.); as for “GGGGCGGCAGTGGATGGCGGTTGGGCGGCGGTGCGGGGAGCGGAGTCACCTAGTGCAG”, 12200 fluorescence intensity (a.u.); as for “CGTTGCATGGACTGTTCTTCTTGCCATCTTCATCTCCTACCGGAGTCACCTAGTGCAG”, 9750 fluorescence intensity (a.u.). For “TATATATGTATCTCCTGTTGAATCCTGGTCTCTCACTCTCCGGAGTCACCTAGTGCAG”, the binding signal was 12800 fluorescence intensity (a.u.). As to “GCAGCAGGGAGGTGGGGCGCAGGAGGAAGAAGAAGAGGGACGGAGTCACCTAGTGCAG”, the binding signal was 13300 fluorescence intensity (a.u.). As for “ATCATAGCCGATTCTTTGCAAACTCAGTGAAGCTTCTTTCCGGAGTCACCTAGTGCAG”, the figure is 8650 fluorescence intensity (a.u.). As for “GTAGTTCGAGTTTAAATTTTTTTTGTGGTTGGTTGTATCGCGGAGTCACCTAGTGCAG”, the binding signal is 11100 fluorescence intensity (a.u.). As for “TTTCTGATCCGTTAGGCCCTGTTTAGTTCCCACGCAAAAACGGAGTCACCTAGTGCAG”, the figure is 8560 fluorescence intensity (a.u.). Consider “AAGCTGCTATTTAACTTTGACCAAAGTCAAAACATTTTATCGGAGTCACCTAGTGCAG”, for which the binding signal was 9700 fluorescence intensity (a.u.).

Regarding “CATGTGTTCCCTTTTTTGCTTTTAACTACATATTTGGAAACGGAGTCACCTAGTGCAG”, the binding signal is 8880 fluorescence intensity (a.u.). As for “TTCGTCAGTCTACTTTTCTCTTTGGGGTAATCACATAACTCGGAGTCACCTAGTGCAG”, the figure is 9270 fluorescence intensity (a.u.). As for “TGCTGTTCCAACTTCCGTTGCAGTTAATCCCTATATAAACCGGAGTCACCTAGTGCAG”, the figure is 8030 fluorescence intensity (a.u.).

With “ATGTTTGACCGTTCGTCTTATTCAAAAAATTTTTGTGAAACGGAGTCACCTAGTGCAG”, the binding signal is 8810 fluorescence intensity (a.u.).

In the case of “AATGCCTGGCCCAGCCCAGCCACAACCGCCTTCAGGCCATCGGAGTCACCTAGTGCAG”, the binding signal was 8080 fluorescence intensity (a.u.).

Turning to “TTATTGTGTTCTTACTGCTATTATTTTGGCCATTTTTTCTCGGAGTCACCTAGTGCAG”, the binding signal was 8660 fluorescence intensity (a.u.). As to “GATCCGCCGCCGCCGCCTCCTCCCCGGGCCTCTCTCTGATCGGAGTCACCTAGTGCAG”, the binding signal is 8090 fluorescence intensity (a.u.).

On to “CATGAGGTGATTTGGTTGTGTTTCAGCTTTTTACCATATTCGGAGTCACCTAGTGCAG”, for which the binding signal is 10200 fluorescence intensity (a.u.). Turning to “ATATCAACCATGTCGTTCGTCCATCTTGTTCTGACCTGTGCGGAGTCACCTAGTGCAG”, the binding signal is 11800 fluorescence intensity (a.u.). As for “ACCACCACCTCGGCATCTCCTCGTCCTCGAGCCCAATACTCGGAGTCACCTAGTGCAG”, the binding signal is 9160 fluorescence intensity (a.u.). As for “CTGACGACGTGCTGGACGAGCTCGACTACTTCCGCATCCACGGAGTCACCTAGTGCAG”, the figure is 8820 fluorescence intensity (a.u.); as for “CTATTCCTGCCTCGCTCTCTCTCCGTCACGAAGTTTTCTGCGGAGTCACCTAGTGCAG”, 8550 fluorescence intensity (a.u.). The value for “ATGTTCTTAGTGTTTGGGGCAGTGTACTTCTTGTCACTTCCGGAGTCACCTAGTGCAG” was 10000 fluorescence intensity (a.u.). As for “AGAATTCAGTATTTGCCCTGGTTCATTACAATGCTTATATCGGAGTCACCTAGTGCAG”, the figure is 8550 fluorescence intensity (a.u.); as for “ACCACCACTTCCGCCGGCGCCACTCGCTTTCGTGAAGAAACGGAGTCACCTAGTGCAG”, 8730 fluorescence intensity (a.u.). Turning to “CTCCAGTGGCCAATTAGGCTTGCGTCTCTTCCTCAGATTTCGGAGTCACCTAGTGCAG”, the binding signal is 8380 fluorescence intensity (a.u.).

As for “CACAAGTAGGCATTAACAGCTTCTGTTTCTTCTATTATTACGGAGTCACCTAGTGCAG”, the binding signal is 8960 fluorescence intensity (a.u.). The value for “GCTGTGTGGGAGGGAGGGAGGAAGGGATTGACGAAAATAGCGGAGTCACCTAGTGCAG” was 12600 fluorescence intensity (a.u.). As for “ATTATTGAGTGTCAGTAGTACATATTCCTTTCTTGATTCTCGGAGTCACCTAGTGCAG”, the figure is 8240 fluorescence intensity (a.u.).

Turning to “CCTGAAGTTGAATTCCCGACCTTTTTTGTTCAGCTATTGACGGAGTCACCTAGTGCAG”, the binding signal is 10800 fluorescence intensity (a.u.).

As to “TCATTTATAGGCAATGTACTTCACAATGCTTGTGATCTTTCGGAGTCACCTAGTGCAG”, the binding signal was 8280 fluorescence intensity (a.u.). With “TGGCGTCTTGTTGGTTAGTCTGTTGAAATGTGATTTTTATCGGAGTCACCTAGTGCAG”, the binding signal was 9960 fluorescence intensity (a.u.). As to “GTACATTATTCAATTTAGTTGTGTGCATCTAGCTTACTGACGGAGTCACCTAGTGCAG”, the binding signal is 9080 fluorescence intensity (a.u.). The value for “TTTTTCCTCTTTTCTTTTATTGTTTTTGCGACTTAAAACCCGGAGTCACCTAGTGCAG” was 8550 fluorescence intensity (a.u.); that for “ATCGCGCATCACCCCTAGCCCTAGCCAACTACTACCTTAGCGGAGTCACCTAGTGCAG” was 8690 fluorescence intensity (a.u.).

Consider “TTTAAAGATGGGTGGGAAATCATTTCTCTTTCCCATTTGCCGGAGTCACCTAGTGCAG”, for which the binding signal is 10600 fluorescence intensity (a.u.). Take “CTGTTATTTAATTATATATAATTTTTCATGCGGTCTGTCCCGGAGTCACCTAGTGCAG”: the binding signal is 9310 fluorescence intensity (a.u.). As for “TTATTTTGTGTTGATGTTTTGACCGAATGATTCTTAATTTCGGAGTCACCTAGTGCAG”, the figure is 8080 fluorescence intensity (a.u.).

These data come from publication PMC7819943, “Rice protein-binding microarrays: a tool to detect cis-acting elements near promoter regions in rice”.
